Experimental data published in the odorant receptor screen of Mainland et al. (2015).
Several values for one entry are separate records, joined by “and”; a condition that tells them apart may be missing. Identical values can stand only once. The list shows a part of the results. Single wells; the ratio to wells without odorant was worked out here, and repeats agree poorly.

What was measured:
Assay in all cases: odorant receptor activation (CRE luciferase / Renilla) (fold of no-odor wells); higher = more activation
Conditions in all cases: 100 µM
OR1J2 clone 1443 = tested on: OR1J2 clone 1443
OR1J4 clone 1429 = tested on: OR1J4 clone 1429
OR1K1 clone 1315 = tested on: OR1K1 clone 1315
OR1L1 clone 1379 = tested on: OR1L1 clone 1379
OR1L3 clone 1090 = tested on: OR1L3 clone 1090
OR1L4 G234R clone 1102 = tested on: OR1L4 G234R clone 1102
[1] = tested on: OR1L6 Q23K/C150Y/I215T/R221Q/M223I/G234R clone 1539
OR1L8 clone 1088 = tested on: OR1L8 clone 1088
OR1M1 clone 1198 = tested on: OR1M1 clone 1198
OR1N1 clone 1463 = tested on: OR1N1 clone 1463

CCCCCCCOC(C)=O [heptyl acetate]
odorant receptor activation (OR1J2 clone 1443): 0.642
odorant receptor activation (OR1J4 clone 1429): 1
odorant receptor activation (OR1K1 clone 1315): 0.76 and 1.13
odorant receptor activation (OR1L1 clone 1379): 0.828
odorant receptor activation (OR1L3 clone 1090): 1.43
odorant receptor activation (OR1L4 G234R clone 1102): 3.19
odorant receptor activation [1]: 0.7 and 0.773
odorant receptor activation (OR1L8 clone 1088): 0.661
odorant receptor activation (OR1M1 clone 1198): 1.59
odorant receptor activation (OR1N1 clone 1463): 1.07 and 1.38

CC1=CCC(C(C)(C)O)CC1 (stereo not given) [terpineol]
odorant receptor activation (OR1J2 clone 1443): 1.26
odorant receptor activation (OR1J4 clone 1429): 1.08
odorant receptor activation (OR1K1 clone 1315): 1.33
odorant receptor activation (OR1L1 clone 1379): 1.32
odorant receptor activation (OR1L3 clone 1090): 1.13
odorant receptor activation (OR1L4 G234R clone 1102): 1.11
odorant receptor activation [1]: 0.78
odorant receptor activation (OR1L8 clone 1088): 1.08
odorant receptor activation (OR1M1 clone 1198): 1.26
odorant receptor activation (OR1N1 clone 1463): 0.75

c1ccc(Oc2ccccc2)cc1 [diphenyl ether]
odorant receptor activation (OR1J2 clone 1443): 1.04
odorant receptor activation (OR1J4 clone 1429): 1.01
odorant receptor activation (OR1K1 clone 1315): 1.01
odorant receptor activation (OR1L1 clone 1379): 1.14
odorant receptor activation (OR1L3 clone 1090): 1.01
odorant receptor activation (OR1L4 G234R clone 1102): 1.17
odorant receptor activation [1]: 0.872
odorant receptor activation (OR1L8 clone 1088): 1.05
odorant receptor activation (OR1M1 clone 1198): 1.34
odorant receptor activation (OR1N1 clone 1463): 1.24

C=CCc1ccc(OC(C)=O)c(OC)c1 [eugenol acetate]
odorant receptor activation (OR1J2 clone 1443): 1.41
odorant receptor activation (OR1J4 clone 1429): 1.52
odorant receptor activation (OR1K1 clone 1315): 1.85
odorant receptor activation (OR1L1 clone 1379): 1.78
odorant receptor activation (OR1L3 clone 1090): 1.67
odorant receptor activation (OR1L4 G234R clone 1102): 2.03
odorant receptor activation [1]: 1.11
odorant receptor activation (OR1L8 clone 1088): 1.66
odorant receptor activation (OR1M1 clone 1198): 1.98
odorant receptor activation (OR1N1 clone 1463): 1.63

COc1cc(C=O)ccc1O [vanillin]
odorant receptor activation (OR1J2 clone 1443): 1.07
odorant receptor activation (OR1J4 clone 1429): 1.08
odorant receptor activation (OR1K1 clone 1315): 1.65
odorant receptor activation (OR1L1 clone 1379): 1.25
odorant receptor activation (OR1L3 clone 1090): 1.21
odorant receptor activation (OR1L4 G234R clone 1102): 0.954
odorant receptor activation [1]: 0.896
odorant receptor activation (OR1L8 clone 1088): 1.01
odorant receptor activation (OR1M1 clone 1198): 1.32
odorant receptor activation (OR1N1 clone 1463): 1.07

CC(=O)C(C)=O [diacetyl]
odorant receptor activation (OR1J2 clone 1443): 1.46
odorant receptor activation (OR1J4 clone 1429): 1.44
odorant receptor activation (OR1K1 clone 1315): 1.05
odorant receptor activation (OR1L1 clone 1379): 1.4
odorant receptor activation (OR1L3 clone 1090): 0.986
odorant receptor activation (OR1L4 G234R clone 1102): 1.15
odorant receptor activation [1]: 0.873
odorant receptor activation (OR1L8 clone 1088): 1.01
odorant receptor activation (OR1M1 clone 1198): 1.16
odorant receptor activation (OR1N1 clone 1463): 1.47

CCCCO [1-butanol]
odorant receptor activation (OR1J2 clone 1443): 1.05
odorant receptor activation (OR1J4 clone 1429): 1.49
odorant receptor activation (OR1K1 clone 1315): 0.903
odorant receptor activation (OR1L1 clone 1379): 0.822
odorant receptor activation (OR1L3 clone 1090): 23.3
odorant receptor activation (OR1L4 G234R clone 1102): 29.2
odorant receptor activation [1]: 1.32
odorant receptor activation (OR1L8 clone 1088): 1.65
odorant receptor activation (OR1M1 clone 1198): 1.05
odorant receptor activation (OR1N1 clone 1463): 0.87

CC(C)C(=O)O [isobutyric acid]
odorant receptor activation (OR1J2 clone 1443): 0.575
odorant receptor activation (OR1J4 clone 1429): 0.823
odorant receptor activation (OR1K1 clone 1315): 1.15 and 0.855
odorant receptor activation (OR1L1 clone 1379): 0.744
odorant receptor activation (OR1L3 clone 1090): 1.29
odorant receptor activation (OR1L4 G234R clone 1102): 0.945
odorant receptor activation [1]: 0.957 and 0.79
odorant receptor activation (OR1L8 clone 1088): 1.49
odorant receptor activation (OR1M1 clone 1198): 1.4
odorant receptor activation (OR1N1 clone 1463): 1.05 and 0.97

CCCCCCCCCC=O [decyl aldehyde]
odorant receptor activation (OR1J2 clone 1443): 1.74
odorant receptor activation (OR1J4 clone 1429): 1.32
odorant receptor activation (OR1K1 clone 1315): 1.14
odorant receptor activation (OR1L1 clone 1379): 1.54
odorant receptor activation (OR1L3 clone 1090): 1.19
odorant receptor activation (OR1L4 G234R clone 1102): 1.3
odorant receptor activation [1]: 0.872
odorant receptor activation (OR1L8 clone 1088): 1.4
odorant receptor activation (OR1M1 clone 1198): 1.45
odorant receptor activation (OR1N1 clone 1463): 1.03

CCCCCCCC=CC=O [2-decenal]
odorant receptor activation (OR1J2 clone 1443): 1.31
odorant receptor activation (OR1J4 clone 1429): 1.17
odorant receptor activation (OR1K1 clone 1315): 0.997
odorant receptor activation (OR1L1 clone 1379): 1.43
odorant receptor activation (OR1L3 clone 1090): 55.8
odorant receptor activation (OR1L4 G234R clone 1102): 26.7
odorant receptor activation [1]: 1.29
odorant receptor activation (OR1L8 clone 1088): 3.08
odorant receptor activation (OR1M1 clone 1198): 0.997
odorant receptor activation (OR1N1 clone 1463): 1.51

COC(=O)c1ccccc1O [methyl salicylate]
odorant receptor activation (OR1J2 clone 1443): 1.31
odorant receptor activation (OR1J4 clone 1429): 1.02
odorant receptor activation (OR1K1 clone 1315): 0.287
odorant receptor activation (OR1L1 clone 1379): 1
odorant receptor activation (OR1L3 clone 1090): 1.12
odorant receptor activation (OR1L4 G234R clone 1102): 0.994
odorant receptor activation [1]: 0.92
odorant receptor activation (OR1L8 clone 1088): 0.904
odorant receptor activation (OR1M1 clone 1198): 0.811
odorant receptor activation (OR1N1 clone 1463): 1.12

CC1CCC(C(C)C)C(O)C1 (single isomer, unassigned; (-)) [(-)-menthol]
odorant receptor activation (OR1J2 clone 1443): 1.14
odorant receptor activation (OR1J4 clone 1429): 1.35
odorant receptor activation (OR1K1 clone 1315): 0.696
odorant receptor activation (OR1L1 clone 1379): 1.14
odorant receptor activation (OR1L3 clone 1090): 30.4
odorant receptor activation (OR1L4 G234R clone 1102): 22.5
odorant receptor activation [1]: 2.88
odorant receptor activation (OR1L8 clone 1088): 1.71
odorant receptor activation (OR1M1 clone 1198): 1.42
odorant receptor activation (OR1N1 clone 1463): 3.44

O=CCc1ccccc1 [phenyl acetaldehyde]
odorant receptor activation (OR1J2 clone 1443): 1.4
odorant receptor activation (OR1J4 clone 1429): 1.38
odorant receptor activation (OR1K1 clone 1315): 1.55
odorant receptor activation (OR1L1 clone 1379): 1.74
odorant receptor activation (OR1L3 clone 1090): 1.53
odorant receptor activation (OR1L4 G234R clone 1102): 1.31
odorant receptor activation [1]: 0.903
odorant receptor activation (OR1L8 clone 1088): 1.13
odorant receptor activation (OR1M1 clone 1198): 1.07
odorant receptor activation (OR1N1 clone 1463): 1.43
